The source gives many values for each of these; only a part stands here.
Test system: colon gene expression
Test: RNA-Seq of colonic tissue of germ-free mice treated with 50 mg/kg/d N-methylserotonin
Assay type: in vivo, germ-free C57BL/6J mice
Settings: colon

`CNCCc1c[nH]c2ccc(O)cc12` [N-methylserotonin] gave a log2 fold-change (gene 2210416O15Rik) of 0.48, a log2 fold-change (gene 2610528A11Rik) of −0.48 and a log2 fold-change (gene 5730409E04Rik) of 0.73. For the same compound, the log2 fold-change (gene 9030619P08Rik) was −0.13, the log2 fold-change (gene 9530002B09Rik) was 9.07 and the log2 fold-change (gene 9530003J23Rik) was 7.07. The log2 fold-change (gene 9530053A07Rik) was 10.44, the log2 fold-change (gene A4gnt) was 0.36 and the log2 fold-change (gene AA467197) was −0.50. The log2 fold-change (gene AW112010) was −0.52, the log2 fold-change (gene Aadac) was −0.51 and the log2 fold-change (gene Abat) was −0.36. It also gave a log2 fold-change (gene Abcg2) of −0.50, a log2 fold-change (gene Abcg5) of −0.77 and a log2 fold-change (gene Acad11) of −0.29. It also gave a log2 fold-change (gene Acadsb) of 0.46, a log2 fold-change (gene Acbd4) of 0.41 and a log2 fold-change (gene Acpp) of −0.40. It also gave a log2 fold-change (gene Acsm3) of −0.55, a log2 fold-change (gene Acta1) of 1.78 and a log2 fold-change (gene Actr3) of −0.22. It also gave a log2 fold-change (gene Adarb2) of 2.23, a log2 fold-change (gene Adgra3) of −0.25 and a log2 fold-change (gene Adgrg7) of −0.34. The log2 fold-change (gene Adh1) was −0.77, the log2 fold-change (gene Agpat4) was −0.32 and the log2 fold-change (gene Aldh1l1) was −0.68. The log2 fold-change (gene Aldob) was −0.54, the log2 fold-change (gene Alox12) was 2.13 and the log2 fold-change (gene Ang4) was −0.54. It also gave a log2 fold-change (gene Angptl2) of 0.49, a log2 fold-change (gene Ank) of 0.30 and a log2 fold-change (gene Anxa3) of −1.00. The log2 fold-change (gene Aqp4) was −0.67, the log2 fold-change (gene Aqp8) was −0.61 and the log2 fold-change (gene Ar) was 1.20. It also gave a log2 fold-change (gene Arap2) of −0.29, a log2 fold-change (gene Arhgap12) of −0.28 and a log2 fold-change (gene Arhgap18) of −0.28. The log2 fold-change (gene Arhgef40) was 0.36, the log2 fold-change (gene Arntl) was −1.01 and the log2 fold-change (gene Arrdc3) was −0.38. It also gave a log2 fold-change (gene Art3) of 0.40, a log2 fold-change (gene Atad2) of −0.38 and a log2 fold-change (gene Atp11a) of 0.46. It also gave a log2 fold-change (gene Avl9) of −0.29, a log2 fold-change (gene B3galt5) of −0.40 and a log2 fold-change (gene B3gnt5) of −0.62. It also gave a log2 fold-change (gene B3gnt7) of −0.59, a log2 fold-change (gene Baat) of −1.69 and a log2 fold-change (gene Bcap31) of −0.27. For the same compound, the log2 fold-change (gene Bcas3) was 0.38, the log2 fold-change (gene Bhlhe41) was 0.97 and the log2 fold-change (gene Bicdl1) was 0.64. For the same compound, the log2 fold-change (gene Bmpr1b) was 3.17, the log2 fold-change (gene Bmt2) was −0.38 and the log2 fold-change (gene Bola3) was −0.44. The log2 fold-change (gene Brip1) was −0.50, the log2 fold-change (gene Bub1) was −0.51 and the log2 fold-change (gene C1galt1) was −0.27. For the same compound, the log2 fold-change (gene C1rb) was 7.69, the log2 fold-change (gene C4bp) was −0.74 and the log2 fold-change (gene COX1) was −0.41. It also gave a log2 fold-change (gene Cacna1c) of 0.54, a log2 fold-change (gene Cacna1h) of 0.41 and a log2 fold-change (gene Cald1) of 0.42. For the same compound, the log2 fold-change (gene Camk2g) was 0.40, the log2 fold-change (gene Camkk1) was 0.76 and the log2 fold-change (gene Capn13) was −0.78. For the same compound, the log2 fold-change (gene Car1) was 0.44, the log2 fold-change (gene Casd1) was −0.48 and the log2 fold-change (gene Casp1) was −0.35. The log2 fold-change (gene Casp7) was −0.38, the log2 fold-change (gene Cbs) was 0.33 and the log2 fold-change (gene Cbx5) was −0.26. For the same compound, the log2 fold-change (gene Ccbe1) was 1.10, the log2 fold-change (gene Ccdc8) was 0.83 and the log2 fold-change (gene Ccdc116) was 0.62. It also gave a log2 fold-change (gene Ccl28) of −0.55, a log2 fold-change (gene Ccni) of −0.28 and a log2 fold-change (gene Cd14) of −0.44. For the same compound, the log2 fold-change (gene Cd248) was 0.77, the log2 fold-change (gene Cdc42) was −0.26 and the log2 fold-change (gene Cdh17) was −0.29. It also gave a log2 fold-change (gene Cdkn2b) of −0.50, a log2 fold-change (gene Cdo1) of 1.77 and a log2 fold-change (gene Ceacam10) of 5.61. It also gave a log2 fold-change (gene Ceacam20) of −0.56, a log2 fold-change (gene Cela1) of −0.68 and a log2 fold-change (gene Cept1) of −0.36. The log2 fold-change (gene Ces2a) was −0.77, the log2 fold-change (gene Ces3a) was −1.12 and the log2 fold-change (gene Chordc1) was −0.39. It also gave a log2 fold-change (gene Chp2) of −0.43, a log2 fold-change (gene Chpt1) of −0.27 and a log2 fold-change (gene Ciart) of 1.10. It also gave a log2 fold-change (gene Cic) of 0.36, a log2 fold-change (gene Ckmt1) of −0.62 and a log2 fold-change (gene Ckmt2) of −0.74. The log2 fold-change (gene Clca1) was −0.76, the log2 fold-change (gene Clca3b) was −0.37 and the log2 fold-change (gene Cldn1) was 0.90. It also gave a log2 fold-change (gene Clic5) of −0.46, a log2 fold-change (gene Clock) of −0.35 and a log2 fold-change (gene Clrn3) of −0.26. For the same compound, the log2 fold-change (gene Clstn2) was 1.12, the log2 fold-change (gene Col4a6) was 1.01 and the log2 fold-change (gene Col6a1) was 0.35. It also gave a log2 fold-change (gene Col8a2) of 0.74, a log2 fold-change (gene Col23a1) of 0.53 and a log2 fold-change (gene Col27a1) of 0.94. For the same compound, the log2 fold-change (gene Cox5a) was −0.35, the log2 fold-change (gene Cpn1) was 0.55 and the log2 fold-change (gene Cpq) was −0.33. For the same compound, the log2 fold-change (gene Cr2) was −0.79, the log2 fold-change (gene Crip2) was 0.46 and the log2 fold-change (gene Crlf2) was 0.72. The log2 fold-change (gene Cry1) was −0.46, the log2 fold-change (gene Csrp1) was 0.39 and the log2 fold-change (gene Ctnnb1) was −0.23. For the same compound, the log2 fold-change (gene Ctse) was −0.85, the log2 fold-change (gene Ctss) was −0.40 and the log2 fold-change (gene Cul9) was 0.49. The log2 fold-change (gene Cux2) was 1.61, the log2 fold-change (gene Cxcl9) was −0.14 and the log2 fold-change (gene Cxcl10) was −0.13. For the same compound, the log2 fold-change (gene Cxcl13) was −0.49, the log2 fold-change (gene Cyp2c68) was −0.86 and the log2 fold-change (gene Cyp2c69) was −0.56. The log2 fold-change (gene Cyp2d10) was −0.70, the log2 fold-change (gene Cyp2d34) was −0.36 and the log2 fold-change (gene Cyp4f16) was −0.66. For the same compound, the log2 fold-change (gene Cyp4f17) was 0.91, the log2 fold-change (gene D630003M21Rik) was 0.74 and the log2 fold-change (gene D630045J12Rik) was 0.96. It also gave a log2 fold-change (gene D930048N14Rik) of 1.02, a log2 fold-change (gene Ddc) of −0.64 and a log2 fold-change (gene Defb42) of 6.02. For the same compound, the log2 fold-change (gene Dek) was −0.26, the log2 fold-change (gene Dhrs7b) was −0.35 and the log2 fold-change (gene Dhx32) was −0.33. For the same compound, the log2 fold-change (gene Dio1) was −0.42, the log2 fold-change (gene Dlgap5) was −0.46 and the log2 fold-change (gene Dmxl1) was −0.25. For the same compound, the log2 fold-change (gene Dnajb1) was −0.37, the log2 fold-change (gene Doc2b) was 1.05 and the log2 fold-change (gene Dram2) was −0.27. For the same compound, the log2 fold-change (gene Dstn) was −0.26, the log2 fold-change (gene Dtnb) was 0.79 and the log2 fold-change (gene Dusp6) was −0.64. It also gave a log2 fold-change (gene Efr3a) of −0.26, a log2 fold-change (gene Efs) of 0.99 and a log2 fold-change (gene Egf) of 2.10. It also gave a log2 fold-change (gene Elf5) of 0.01, a log2 fold-change (gene Elovl7) of −0.40 and a log2 fold-change (gene Eml1) of 0.35. For the same compound, the log2 fold-change (gene Enah) was 0.50, the log2 fold-change (gene Eno3) was −1.06 and the log2 fold-change (gene Epb41l4b) was −0.25. It also gave a log2 fold-change (gene Epcam) of −0.25 and a log2 fold-change (gene Epn3) of 0.42.
